Measured values: publication PMC12094083
Results are given in words; binding and its absence hold for the method and conditions named. Binding seen in cells or lysates may run through a third protein. Some entries that bind do so weakly or less than the wild type.

Sequences of proteins named here, by UniProt entry; tags and fusion partners are left off.
UniProt Q8IWV7: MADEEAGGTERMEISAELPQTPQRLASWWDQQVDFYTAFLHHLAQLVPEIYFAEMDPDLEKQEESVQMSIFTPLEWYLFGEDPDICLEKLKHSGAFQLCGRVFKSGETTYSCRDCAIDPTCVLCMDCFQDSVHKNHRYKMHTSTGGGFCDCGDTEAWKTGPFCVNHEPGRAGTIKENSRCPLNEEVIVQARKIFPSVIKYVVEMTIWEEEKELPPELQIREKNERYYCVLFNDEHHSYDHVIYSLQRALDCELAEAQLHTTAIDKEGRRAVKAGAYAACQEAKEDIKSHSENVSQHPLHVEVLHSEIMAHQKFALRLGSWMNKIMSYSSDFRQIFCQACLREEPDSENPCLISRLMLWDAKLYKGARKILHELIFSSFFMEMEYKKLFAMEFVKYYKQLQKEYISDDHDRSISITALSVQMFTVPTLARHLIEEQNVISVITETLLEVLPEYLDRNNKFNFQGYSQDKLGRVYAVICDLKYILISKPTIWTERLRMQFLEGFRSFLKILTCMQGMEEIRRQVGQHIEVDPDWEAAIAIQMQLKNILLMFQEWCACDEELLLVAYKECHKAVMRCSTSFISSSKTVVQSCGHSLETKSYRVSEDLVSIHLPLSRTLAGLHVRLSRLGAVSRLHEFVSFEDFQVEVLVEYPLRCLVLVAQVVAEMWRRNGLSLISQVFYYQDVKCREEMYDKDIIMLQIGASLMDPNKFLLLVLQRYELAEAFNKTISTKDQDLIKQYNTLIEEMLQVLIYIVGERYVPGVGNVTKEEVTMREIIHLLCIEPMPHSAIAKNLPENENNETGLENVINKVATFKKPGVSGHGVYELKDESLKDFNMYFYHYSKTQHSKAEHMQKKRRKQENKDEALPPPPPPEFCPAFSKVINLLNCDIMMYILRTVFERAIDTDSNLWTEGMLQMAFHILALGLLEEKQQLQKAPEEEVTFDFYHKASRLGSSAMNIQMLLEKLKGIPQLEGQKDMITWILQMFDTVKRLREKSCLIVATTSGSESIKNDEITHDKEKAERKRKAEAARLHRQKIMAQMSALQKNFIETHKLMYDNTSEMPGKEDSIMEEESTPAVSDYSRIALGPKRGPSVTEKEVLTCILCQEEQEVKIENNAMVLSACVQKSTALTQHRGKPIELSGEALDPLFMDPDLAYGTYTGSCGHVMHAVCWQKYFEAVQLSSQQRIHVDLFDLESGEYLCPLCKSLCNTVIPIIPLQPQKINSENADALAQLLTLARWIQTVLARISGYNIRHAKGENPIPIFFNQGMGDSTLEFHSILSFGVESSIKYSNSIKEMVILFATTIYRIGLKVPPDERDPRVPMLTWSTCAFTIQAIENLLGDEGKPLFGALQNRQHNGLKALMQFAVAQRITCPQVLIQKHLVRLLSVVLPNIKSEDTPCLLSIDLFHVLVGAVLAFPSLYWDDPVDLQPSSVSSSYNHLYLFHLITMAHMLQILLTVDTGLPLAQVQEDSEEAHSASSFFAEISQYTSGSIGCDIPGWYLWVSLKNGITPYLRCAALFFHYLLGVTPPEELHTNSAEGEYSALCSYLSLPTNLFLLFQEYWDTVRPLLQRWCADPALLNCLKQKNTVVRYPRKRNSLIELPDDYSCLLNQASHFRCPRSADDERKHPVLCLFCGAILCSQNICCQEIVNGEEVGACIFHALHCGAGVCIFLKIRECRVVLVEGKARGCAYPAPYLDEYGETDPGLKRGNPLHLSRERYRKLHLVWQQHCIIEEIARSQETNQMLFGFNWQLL
UniProt Q8IWV8: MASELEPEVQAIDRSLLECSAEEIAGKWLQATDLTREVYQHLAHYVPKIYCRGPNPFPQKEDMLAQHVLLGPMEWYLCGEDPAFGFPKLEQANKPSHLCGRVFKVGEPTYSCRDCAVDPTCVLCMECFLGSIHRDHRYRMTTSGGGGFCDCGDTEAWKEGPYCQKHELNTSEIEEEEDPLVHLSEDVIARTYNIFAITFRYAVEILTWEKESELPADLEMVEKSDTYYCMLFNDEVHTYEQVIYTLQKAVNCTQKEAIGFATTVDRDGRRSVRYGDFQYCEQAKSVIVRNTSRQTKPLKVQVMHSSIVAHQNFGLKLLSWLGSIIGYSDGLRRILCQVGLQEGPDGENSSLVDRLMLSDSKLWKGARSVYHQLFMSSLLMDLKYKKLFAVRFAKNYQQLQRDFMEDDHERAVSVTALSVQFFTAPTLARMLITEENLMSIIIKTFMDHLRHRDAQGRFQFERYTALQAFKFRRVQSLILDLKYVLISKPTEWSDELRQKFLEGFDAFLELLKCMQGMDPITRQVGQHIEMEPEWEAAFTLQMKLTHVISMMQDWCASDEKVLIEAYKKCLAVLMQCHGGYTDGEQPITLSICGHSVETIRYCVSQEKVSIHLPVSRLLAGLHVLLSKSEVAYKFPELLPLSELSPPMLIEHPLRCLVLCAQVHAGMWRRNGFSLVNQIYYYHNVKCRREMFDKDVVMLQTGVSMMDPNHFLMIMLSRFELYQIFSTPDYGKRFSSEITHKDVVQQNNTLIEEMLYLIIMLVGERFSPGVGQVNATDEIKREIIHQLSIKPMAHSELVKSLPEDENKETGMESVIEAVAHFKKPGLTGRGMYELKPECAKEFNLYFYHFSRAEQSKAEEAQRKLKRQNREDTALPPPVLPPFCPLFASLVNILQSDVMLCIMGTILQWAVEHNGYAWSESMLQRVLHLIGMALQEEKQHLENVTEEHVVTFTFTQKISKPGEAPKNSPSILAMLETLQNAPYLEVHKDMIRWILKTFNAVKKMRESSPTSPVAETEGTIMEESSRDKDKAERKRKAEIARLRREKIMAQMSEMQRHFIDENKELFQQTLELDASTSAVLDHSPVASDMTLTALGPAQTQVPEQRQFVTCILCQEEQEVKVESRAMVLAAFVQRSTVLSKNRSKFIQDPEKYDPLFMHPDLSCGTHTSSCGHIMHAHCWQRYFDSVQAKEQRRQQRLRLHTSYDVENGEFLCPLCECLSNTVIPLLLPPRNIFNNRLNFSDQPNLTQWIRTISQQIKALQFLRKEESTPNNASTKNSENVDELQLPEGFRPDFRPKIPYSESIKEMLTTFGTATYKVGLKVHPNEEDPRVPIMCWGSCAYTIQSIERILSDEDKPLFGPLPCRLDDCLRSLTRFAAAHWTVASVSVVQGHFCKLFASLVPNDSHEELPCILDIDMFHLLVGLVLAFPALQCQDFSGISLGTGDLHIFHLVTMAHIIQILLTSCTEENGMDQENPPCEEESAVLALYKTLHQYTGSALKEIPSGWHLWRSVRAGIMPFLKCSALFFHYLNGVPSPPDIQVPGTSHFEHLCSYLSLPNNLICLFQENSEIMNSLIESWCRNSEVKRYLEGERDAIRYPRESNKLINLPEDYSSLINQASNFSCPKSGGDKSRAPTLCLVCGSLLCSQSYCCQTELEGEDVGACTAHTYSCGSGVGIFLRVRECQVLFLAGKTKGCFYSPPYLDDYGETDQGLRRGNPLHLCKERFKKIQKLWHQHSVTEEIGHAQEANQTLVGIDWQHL

Key:
UBR1 = UBR1 (UniProt Q8IWV7); test: co-IP; co-immunoprecipitation of SOD2 and UBR1 (Figure S5A); cells and precipitated partner not given
[1] = biological target: UBR2 (human (endogenous in Jurkat)) (UniProt Q8IWV8); test: co-IP; immunoprecipitation of UBR2 from an isolated cytosolic cell fraction of Jurkat cells; SOD2 found by western blot
[2] = biological target: UBR2 (human (endogenous in Jurkat)) (UniProt Q8IWV8); test: co-IP; immunoprecipitation of UBR2 from a whole cell lysate of Jurkat cells in a non-denaturing buffer (Frackelton buffer, 1% Triton X-100); SOD2 found by western blot

Measured: binding

B1: superoxide dismutase 2 (SOD2) (protein, UniProt P04179 25-222)
chain: KHSLPDLPYDYGALEPHINAQIMQLHHSKHHAAYVNNLNVTEEKYQEALAKGDVTAQIALQPALKFNGGGHINHSIFWTNLSPNGGGEPKGELLEAIKRDFGSFDKFKEKLTAASVGVQGSGWGWLGFNKERGHLQIAACPNQDPLQGTTGLIPLLGIDVWEHAYYLQYKNVRPDYLKAIWNVINWENVTERYMACKK
binds: all assays above
